Results reported in patent publication US5358945A, “Pyrimidine compound and pharmaceutically acceptable salts thereof” (Mitsui Petrochemical Industries, Ltd., priority 1990, dated 1994).
Values joined by “and” are separate entries in the source; they are usually repeats but may differ in a detail not shown here. Equal values may be shown once. At least one read-out could not be matched to a standard name with certainty.

Tested on: Mouse neuro 2a cells
Test: Neurite outgrowth of mouse neuroblastoma neuro 2a cells (Table 7)
Type: cell-based
Conditions: 10 mM; mean ± S.D.; phosphate
Method: The biological activities in vitro of the compounds of formula (I) on cells of the nervous system were tested. The cells tested were mouse neuroblastoma cell line neuro-2a (Dainippon Pharmaceutical Co., Ltd.) which have been established as the cells of the nervous system. The above nerve cells were grown in an incubator at 37° C. in the presence of 5% carbon dioxide gas exponentially, and the cultured for a certain period of time together with the compounds of formula (I).
The effects of the compounds of this invention on neuroblastoma cells were examined by the following method.
Mouse neuro 2a cells in the logarithmic growth period in the Dulbecco's modified Eagle's medium [DMEM, containing 100 units/ml of penicillin G sodium and 100 micrograms/ml of streptomycin sulfate] containing 10% of FCS were seeded in a 48-well plate so that the number of cells was 1,000 cells/well, and cultured for one day in 0.25 ml of the culture fluid in each well in an incubator containing 5% of carbon dioxide gas in air at 37° C. […] Under a microscope, the number of cells containing outgrown neurites (cells having at least one neurite with a length of at least two times as large as the long diameter of the cell) was counted visually, and the proportion of these cells in the entire cells was calculated. […]

CC(C)Nc1ncccn1.O=P(O)(O)O [Isaxonine, 2-isopropylaminopyrimidine phosphate, reference compound]
Ratio of the number of cells having neurites with a length of at least two times as large as the diameter of cells to the total number of cells: 23.0 ± 5.0% and 23.8 ± 4.7% and 20.2 ± 0.8% and 25.1 ± 2.8% and 16.0 ± 4.7% and 18.3 ± 2.4% and 18.8 ± 1.6%
